The record followed here is publication PMC12454907.

This assay deals with T1, OsSAP5-MYC (rice (Oryza sativa)) (UniProt Q6H754).
T1 sequence: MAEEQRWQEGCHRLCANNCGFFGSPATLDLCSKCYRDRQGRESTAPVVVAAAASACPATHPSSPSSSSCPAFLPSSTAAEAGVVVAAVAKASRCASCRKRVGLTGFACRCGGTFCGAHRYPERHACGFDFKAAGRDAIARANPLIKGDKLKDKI
Kind of assay: affinity purification with mass spectrometry; total protein of OsSAP5-MYC and NIP seedlings in Co-IP buffer, anti-c-Myc affinity beads 4 h at 4°C, eluate analysed by LC-MS/MS.

Results are given in words; binding and its absence hold for the method and conditions named. In cells and extracts the contact can be indirect. A yes stands for co-enrichment or nearness to the bait. Other partners may have been found. Where a sequence is shown, tags or fusion partners need not be part of it.

B1: OsGF14c (LOC_Os08g33370), endogenous (protein, UniProt Q6ZKC0 1-256)
chain: MSREENVYMAKLAEQAERYEEMVEYMEKVAKTVDVEELTVEERNLLSVAYKNVIGARRASWRIVSSIEQKEEGRGNEEHVTLIKEYRGKIEAELSKICDGILKLLDSHLVPSSTAAESKVFYLKMKGDYHRYLAEFKTGAERKEAAESTMVAYKAAQDIALADLAPTHPIRLGLALNFSVFYYEILNSPDKACNLAKQAFDEAISELDTLGEESYKDSTLIMQLLRDNLTLWTSDLTEDGGDEVKEASKGDACEGQ
Take B1: the binding result is “binds”.
